Changes are numbered by the printed parent chain. These are yes or no findings as the source states them, for the method shown. In cells and extracts the contact can be indirect. Binding can be weak; no strength is given. Sequences can lack the tags named with a protein.
Columns and labels:
Assay in all cases: co-IP; HEK293 cells co-transfected 48 hrs; RIPA lysate; anti-FLAG M2 with protein A/G magnetic beads overnight at 4°C; eluted with FLAG peptide; blot with anti-V5
[1] = biological target: T1, TALK-1 T3-FLAG (human) (UniProt Q96T55)
T1 sequence: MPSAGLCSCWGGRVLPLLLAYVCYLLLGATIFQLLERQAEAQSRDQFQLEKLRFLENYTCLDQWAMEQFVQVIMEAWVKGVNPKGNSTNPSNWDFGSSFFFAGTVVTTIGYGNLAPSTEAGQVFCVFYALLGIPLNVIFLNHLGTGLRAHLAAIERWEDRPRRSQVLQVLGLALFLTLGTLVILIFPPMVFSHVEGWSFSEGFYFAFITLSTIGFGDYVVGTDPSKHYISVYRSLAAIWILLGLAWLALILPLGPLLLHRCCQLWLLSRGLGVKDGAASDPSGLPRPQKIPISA

[2] = biological target: T2, TALK-1 transcript variant 2 (T2)-FLAG (human) (UniProt Q96T55)
T2 sequence: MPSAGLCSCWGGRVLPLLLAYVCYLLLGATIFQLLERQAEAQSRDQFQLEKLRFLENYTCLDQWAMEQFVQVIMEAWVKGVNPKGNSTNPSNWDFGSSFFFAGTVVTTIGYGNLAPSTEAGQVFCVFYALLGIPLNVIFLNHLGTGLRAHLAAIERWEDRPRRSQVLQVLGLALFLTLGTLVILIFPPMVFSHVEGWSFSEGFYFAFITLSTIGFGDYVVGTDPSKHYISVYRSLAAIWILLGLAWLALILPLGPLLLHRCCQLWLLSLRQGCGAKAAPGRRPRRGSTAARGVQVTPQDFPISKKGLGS

[3] = biological target: T3, TALK-1 T3 A277E (rs1535500)-FLAG (human) (UniProt Q96T55)
T3 sequence: T1 sequence with A277E

[4] = biological target: T4, TALK-1 T3 Δ259-294-FLAG (human) (UniProt Q96T55)
T4 sequence: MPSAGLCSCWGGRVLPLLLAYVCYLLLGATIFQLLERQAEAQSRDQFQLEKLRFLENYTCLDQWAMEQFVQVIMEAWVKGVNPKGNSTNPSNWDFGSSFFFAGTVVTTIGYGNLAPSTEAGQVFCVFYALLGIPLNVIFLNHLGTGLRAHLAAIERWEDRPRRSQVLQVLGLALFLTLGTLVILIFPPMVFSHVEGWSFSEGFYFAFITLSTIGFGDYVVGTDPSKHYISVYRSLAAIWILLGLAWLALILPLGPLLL

Measured: binding

iOPN-V5 (human)
binds: all assays above

Reference: publication PMC5389796
